Test results as given in patent US20020035058A1, “Isopentenyl pyrophosphate isomerase (IPI) and/or prenyl transferase inhibitors” (The University of Sheffield, priority 1996, published 2002).

Experiments:
J774 macrophages [1] = experiment: Loss of total cell viability, MTT reduction; type: cell-based; conditions: 100 μM alendronate + 200 μM mevalonic acid lactone
J774 macrophages [2] = experiment: Assessment of apoptosis in J774 macrophages (nuclear morphology, DNA fragmentation); type: cell-based; conditions: 100 μM, 41 h

**Q.** For `NCCCC(O)(P(=O)(O)O)P(=O)(O)O` [ALENDRONATE, alendronate], which “apoptosis and loss of cell viability with mevalonic acid lactone co-incubation” value (J774 macrophages [1]) is on record?
**A.** not

**Q.** What about the “proportion of remaining cells apoptotic” value (J774 macrophages [2]) of the same compound?
**A.** about 80%
